# This is one part of the list. Single values are uncertain, as repeats are few or missing.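 Cells were imaged in 1,536-well plates, and nuclei stained with an antibody against cleaved PARP were counted against all DNA-stained nuclei to give the apoptosis fraction. Screening doses were chosen to leave most cells alive, and resting and induced cleaved-PARP levels differ strongly between cell lines.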
# System: WM451Lu
# Assay: cleaved PARP positive nuclei fraction relative to DMSO control; melanoma cells; higher = more apoptosis
# Conditions: library dose: low library concentration; 72 h
row,Structure (SMILES),cleaved PARP positive nuclei fraction
1,"CO[C@H]1C[C@@H]2CC[C@@H](C)[C@@](O)(O2)C(=O)C(=O)N2CCCC[C@H]2C(=O)O[C@H]([C@H](C)C[C@@H]2CC[C@@H](OCCO)[C@H](OC)C2)CC(=O)[C@H](C)/C=C(\C)[C@@H](O)[C@@H](OC)C(=O)[C@H](C)C[C@H](C)/C=C/C=C/C=C/1C [everolimus] + O=C1NC(=O)/C(=C/c2ccc(-c3ccc(F)cc3O)o2)S1 [AS252424] (first compound 0.02 µM, partner dose 1 µM)",66.4%
2,"O=C(O)[C@@H]1[O][Sb](=[O])([O][Sb]2(=[O])[O][C@H]([C@H](O)CO)[C@H](O)[C@H](C(=O)O)[O]2)[O][C@H]([C@H](O)CO)[C@@H]1O (stereo partly specified) [stibogluconate] + Clc1ccc(Nc2nnc(Cc3ccncc3)c3ccccc23)cc1 [vatalanib] (first compound 2 µM, partner dose 2 µM)",81.5%
3,"CO[C@H]1C[C@@H]2CC[C@@H](C)[C@@](O)(O2)C(=O)C(=O)N2CCCC[C@H]2C(=O)O[C@H]([C@H](C)C[C@@H]2CC[C@@H](OCCO)[C@H](OC)C2)CC(=O)[C@H](C)/C=C(\C)[C@@H](O)[C@@H](OC)C(=O)[C@H](C)C[C@H](C)/C=C/C=C/C=C/1C [everolimus] + O=C(CCCCCCC(=O)Nc1ccccc1)NO [vorinostat] (first compound 0.02 µM, partner dose 0.08 µM)",143%
4,"CO[C@H]1C[C@@H]2CC[C@@H](C)[C@@](O)(O2)C(=O)C(=O)N2CCCC[C@H]2C(=O)O[C@H]([C@H](C)C[C@@H]2CC[C@@H](OCCO)[C@H](OC)C2)CC(=O)[C@H](C)/C=C(\C)[C@@H](O)[C@@H](OC)C(=O)[C@H](C)C[C@H](C)/C=C/C=C/C=C/1C [everolimus] + Clc1ccc(Nc2nnc(Cc3ccncc3)c3ccccc23)cc1 [vatalanib] (first compound 0.02 µM, partner dose 2 µM)",24.2%
5,"CO[C@H]1C[C@@H]2CC[C@@H](C)[C@@](O)(O2)C(=O)C(=O)N2CCCC[C@H]2C(=O)O[C@H]([C@H](C)C[C@@H]2CC[C@@H](OCCO)[C@H](OC)C2)CC(=O)[C@H](C)/C=C(\C)[C@@H](O)[C@@H](OC)C(=O)[C@H](C)C[C@H](C)/C=C/C=C/C=C/1C [everolimus] + O=C(O)c1ccc2c(c1)nc(Nc1cccc(Cl)c1)c1ccncc12 [CX4945] (first compound 0.02 µM, partner dose 0.4 µM)",120%
6,"CO[C@H]1C[C@@H]2CC[C@@H](C)[C@@](O)(O2)C(=O)C(=O)N2CCCC[C@H]2C(=O)O[C@H]([C@H](C)C[C@@H]2CC[C@@H](OCCO)[C@H](OC)C2)CC(=O)[C@H](C)/C=C(\C)[C@@H](O)[C@@H](OC)C(=O)[C@H](C)C[C@H](C)/C=C/C=C/C=C/1C [everolimus] + CNC(=O)c1cc(Oc2ccc(NC(=O)Nc3ccc(Cl)c(C(F)(F)F)c3)cc2)ccn1 [sorafenib] (first compound 0.02 µM, partner dose 0.4 µM)",80.3%

# Source: the supplement of paper PMC4604168 (melanoma cell lines)
